These are yes or no findings as the source states them, for the method shown. In cells and extracts the contact can be indirect. A result given as binding can be weak or reduced; the word gives no strength.
B1: GlialCAM (glial cell adhesion molecule) (protein, UniProt Q14CZ8 34-416)
chain: VNITSPVRLIHGTVGKSALLSVQYSSTSSDRPVVKWQLKRDKPVTVVQSIGTEVIGTLRPDYRDRIRLFENGSLLLSDLQLADEGTYEVEISITDDTFTGEKTINLTVDVPISRPQVLVASTTVLELSEAFTLNCSHENGTKPSYTWLKDGKPLLNDSRMLLSPDQKVLTITRVLMEDDDLYSCMVENPISQGRSLPVKITVYRRSSLYIILSTGGIFLLVTLVTVCACWKPSKRKQKKLEKQNSLEYMDQNDDRLKPEADTLPRSGEQERKNPMALYILKDKDSPETEENPAPEPRSATEPGPPGYSVSPAVPGRSPGLPIRSARRYPRSPARSPATGRTHSSPPRAPSSPGRSRSASRTLRTAGVHIIREQDEAGPVEISA

Amino acid sequences for entries named in this document (tags omitted). A change or cut given only in a name is not applied to a line headed by its entry.
UniProt Q15049: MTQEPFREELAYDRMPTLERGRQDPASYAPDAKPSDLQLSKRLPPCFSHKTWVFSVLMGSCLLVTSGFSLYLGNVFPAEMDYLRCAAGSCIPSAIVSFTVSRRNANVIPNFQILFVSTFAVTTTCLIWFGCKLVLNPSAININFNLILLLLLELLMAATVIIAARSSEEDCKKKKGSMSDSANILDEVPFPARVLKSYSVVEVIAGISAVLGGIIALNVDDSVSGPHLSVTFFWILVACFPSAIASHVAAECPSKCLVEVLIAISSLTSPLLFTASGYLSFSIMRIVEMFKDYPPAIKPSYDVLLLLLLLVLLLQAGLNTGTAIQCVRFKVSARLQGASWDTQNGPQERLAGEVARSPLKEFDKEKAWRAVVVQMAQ
UniProt P17302: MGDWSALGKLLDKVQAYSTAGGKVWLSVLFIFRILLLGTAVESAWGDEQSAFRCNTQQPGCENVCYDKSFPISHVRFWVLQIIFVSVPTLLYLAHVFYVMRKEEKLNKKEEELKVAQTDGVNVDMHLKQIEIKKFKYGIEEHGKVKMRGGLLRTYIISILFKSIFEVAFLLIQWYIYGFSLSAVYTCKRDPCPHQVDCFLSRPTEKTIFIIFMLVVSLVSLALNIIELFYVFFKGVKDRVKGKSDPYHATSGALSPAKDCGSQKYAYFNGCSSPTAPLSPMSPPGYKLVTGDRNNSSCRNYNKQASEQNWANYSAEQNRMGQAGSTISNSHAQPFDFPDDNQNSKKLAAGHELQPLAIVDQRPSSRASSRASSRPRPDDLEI

Target: MLC1 carrying the pathological mutation c.178-10 t>a (Pt1), X-press tagged (human) (UniProt Q15049)
Test: co-IP; anti-Xpress mAb and protein A/G PLUS agarose beads on lysates of U251 cells expressing X-press-MLC1; binding buffer 20 mM HEPES pH 7.4, 150 mM NaCl, 1 mM EDTA, 1 mM EGTA, 0.1% Triton X-100, 0.1% sodium deoxycholate; overnight at 4 °C; Western blot

Molecule | binding
Connexin 43 (from UniProt P17302 1-382) | no binding
B1 | binds

Reference: publication PMC7348769
